No constants are given. Whether binding was seen depends on the method and setting. Binding seen in cells or lysates may run through a third protein. A result given as binding can be weak or reduced; the word gives no strength.

What all share (assay): co-IP; lysates in NTEN buffer (100 mM NaCl, 20 mM Tris-HCl pH 8.0, 0.5 mM EDTA, 0.5% Nonidet P-40) of parental LNCaP cells (300 μg protein) and of the δ-catenin-overexpressing clone OE1b; incubated 4-16 hours with precipitating antibodies on protein A/G PLUS-agarose beads; IgG as control; SDS-PAGE and Western blot
On the technique in general: In western blotting, separated proteins are transferred to a membrane and probed.

For test [1], the target named is T1, p120 (human (endogenous in LNCaP)) (UniProt O60716).
T1 sequence: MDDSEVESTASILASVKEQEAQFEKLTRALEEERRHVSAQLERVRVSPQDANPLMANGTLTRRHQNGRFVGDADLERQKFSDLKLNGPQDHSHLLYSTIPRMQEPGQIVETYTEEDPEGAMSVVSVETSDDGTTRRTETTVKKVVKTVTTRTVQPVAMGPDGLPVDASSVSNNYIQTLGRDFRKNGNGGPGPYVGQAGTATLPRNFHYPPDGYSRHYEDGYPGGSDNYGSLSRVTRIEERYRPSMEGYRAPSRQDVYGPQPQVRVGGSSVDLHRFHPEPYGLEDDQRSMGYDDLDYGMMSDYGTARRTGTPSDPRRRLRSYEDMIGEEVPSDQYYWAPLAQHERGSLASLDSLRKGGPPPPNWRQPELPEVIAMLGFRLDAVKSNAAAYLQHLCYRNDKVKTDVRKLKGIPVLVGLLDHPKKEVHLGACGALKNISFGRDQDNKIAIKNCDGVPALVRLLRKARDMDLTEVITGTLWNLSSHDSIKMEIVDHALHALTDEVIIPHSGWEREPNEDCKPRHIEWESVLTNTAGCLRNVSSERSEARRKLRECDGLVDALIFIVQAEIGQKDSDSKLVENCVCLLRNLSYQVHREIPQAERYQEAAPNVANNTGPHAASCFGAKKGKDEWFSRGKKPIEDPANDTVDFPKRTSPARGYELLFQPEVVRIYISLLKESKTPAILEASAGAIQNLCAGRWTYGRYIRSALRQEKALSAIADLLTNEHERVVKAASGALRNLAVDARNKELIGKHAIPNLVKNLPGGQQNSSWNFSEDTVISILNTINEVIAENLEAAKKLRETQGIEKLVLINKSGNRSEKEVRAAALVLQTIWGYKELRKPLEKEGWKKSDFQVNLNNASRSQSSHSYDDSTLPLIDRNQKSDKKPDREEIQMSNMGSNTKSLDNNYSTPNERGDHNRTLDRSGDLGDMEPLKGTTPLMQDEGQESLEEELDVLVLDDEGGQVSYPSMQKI

Test [2] deals with α-catenin (human (endogenous in LNCaP)).
Test [3] has as its target E-cadherin (human (endogenous in LNCaP)).

As to α-catenin (human (endogenous in LNCaP)), in test [1], the binding entry is reported as “binds”.
Still for that read-out and setting: with “E-cadherin (human (endogenous in LNCaP))” the entry was “binds”.

B1: δ-catenin (endogenous in parental LNCaP cells) (protein, UniProt Q9UQB3 1-1225)
chain: MFARKPPGAAPLGAMPVPDQPSSASEKTSSLSPGLNTSNGDGSETETTSAILASVKEQELQFERLTRELEAERQIVASQLERCKLGSETGSMSSMSSAEEQFQWQSQDGQKDIEDELTTGLELVDSCIRSLQESGILDPQDYSTGERPSLLSQSALQLNSKPEGSFQYPASYHSNQTLALGETTPSQLPARGTQARATGQSFSQGTTSRAGHLAGPEPAPPPPPPPREPFAPSLGSAFHLPDAPPAAAAAALYYSSSTLPAPPRGGSPLAAPQGGSPTKLQRGGSAPEGATYAAPRGSSPKQSPSRLAKSYSTSSPINIVVSSAGLSPIRVTSPPTVQSTISSSPIHQLSSTIGTYATLSPTKRLVHASEQYSKHSQELYATATLQRPGSLAAGSRASYSSQHGHLGPELRALQSPEHHIDPIYEDRVYQKPPMRSLSQSQGDPLPPAHTGTYRTSTAPSSPGVDSVPLQRTGSQHGPQNAAAATFQRASYAAGPASNYADPYRQLQYCPSVESPYSKSGPALPPEGTLARSPSIDSIQKDPREFGWRDPELPEVIQMLQHQFPSVQSNAAAYLQHLCFGDNKIKAEIRRQGGIQLLVDLLDHRMTEVHRSACGALRNLVYGKANDDNKIALKNCGGIPALVRLLRKTTDLEIRELVTGVLWNLSSCDALKMPIIQDALAVLTNAVIIPHSGWENSPLQDDRKIQLHSSQVLRNATGCLRNVSSAGEEARRRMRECDGLTDALLYVIQSALGSSEIDSKTVENCVCILRNLSYRLAAETSQGQHMGTDELDGLLCGEANGKDAESSGCWGKKKKKKKSQDQWDGVGPLPDCAEPPKGIQMLWHPSIVKPYLTLLSECSNPDTLEGAAGALQNLAAGSWKWSVYIRAAVRKEKGLPILVELLRIDNDRVVCAVATALRNMALDVRNKELIGKYAMRDLVHRLPGGNNSNNTASKAMSDDTVTAVCCTLHEVITKNMENAKALRDAGGIEKLVGISKSKGDKHSPKVVKAASQVLNSMWQYRDLRSLYKKDGWSQYHFVASSSTIERDRQRPYSSSRTPSISPVRVSPNNRSASAPASPREMISLKERKTDYECTGSNATYHGAKGEHTSRKDAMTAQNTGISTLYRNSYGAPAEDIKHNQVSAQPVPQEPSRKDYETYQPFQNSTRNYDESFFEDQVHHRPPASEYTMHLGLKSTGNYVDFYSAARPYSELNYETSHYPASPDSWV
As to B1, the binding result in test [2] and in test [3] was “binds” throughout.

B2: p120 (protein, UniProt O60716 1-968)
chain: T1 sequence
Turning to B2, the binding result in test [2] and in test [3] was “binds” each time.

The values are drawn from PMC5966253.
